In paper PMC4876461:
Results are given in words; binding and its absence hold for the method and conditions named. Binding seen in cells or lysates may run through a third protein. Binding can be weak; no strength is given. Tags and fused reporters may be left off the sequences shown.

Biological target: T1, SUMO5 (tagged, expressed in 293 cells for co-immunoprecipitation) (human) (UniProt G2XKQ0)
T1 sequence: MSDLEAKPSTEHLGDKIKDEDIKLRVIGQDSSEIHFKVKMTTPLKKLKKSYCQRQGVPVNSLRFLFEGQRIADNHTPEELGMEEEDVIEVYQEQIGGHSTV
Assay: co-IP; co-immunoprecipitation from lysates of 293 cells transfected with the plasmids indicated (Fig. 5F, 5G, 6F)

- binding: binds
Substance: PML (human)
